No constants are given. Whether binding was seen depends on the method and setting. Binding seen in cells or lysates may run through a third protein. A yes stands for co-enrichment or nearness to the bait. Other partners may have been found. For some assays here: Sequences can lack the tags named with a protein.

For experiment [1], the target named is T1, Sni445-FLAG (S. cerevisiae) (UniProt P53952).
T1 sequence: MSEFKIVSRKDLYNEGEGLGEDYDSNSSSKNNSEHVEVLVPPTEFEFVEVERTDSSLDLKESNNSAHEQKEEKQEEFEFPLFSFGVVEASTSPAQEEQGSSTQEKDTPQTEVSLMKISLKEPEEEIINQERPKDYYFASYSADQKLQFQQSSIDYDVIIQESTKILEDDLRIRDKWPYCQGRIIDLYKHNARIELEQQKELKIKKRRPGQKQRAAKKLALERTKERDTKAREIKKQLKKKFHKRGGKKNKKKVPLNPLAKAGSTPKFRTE
Description: affinity purification with mass spectrometry; one-step FLAG purification of Sni445-FLAG from yeast lysate (Anti-FLAG M2 Affinity Gel, FLAG-peptide elution; 50 mM Tris-HCl pH 7.5, 100 mM NaCl, 1.5 mM MgCl2, 0.075% NP-40); label-free MS, three replicates.

Experiment [2] concerns the target T2, Sni445-TurboID (S. cerevisiae) (UniProt P53952).
T2 sequence: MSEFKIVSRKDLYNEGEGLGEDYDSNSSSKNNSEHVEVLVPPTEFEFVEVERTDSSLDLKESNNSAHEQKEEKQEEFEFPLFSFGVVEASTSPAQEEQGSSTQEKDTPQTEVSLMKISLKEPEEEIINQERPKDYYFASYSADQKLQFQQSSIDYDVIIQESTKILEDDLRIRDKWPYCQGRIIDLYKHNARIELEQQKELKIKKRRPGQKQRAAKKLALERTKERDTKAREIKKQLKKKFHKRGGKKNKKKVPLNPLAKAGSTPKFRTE
Description: proximity labelling; TurboID: Sni445-TurboID expressed from the CUP1 promoter in yeast; biotinylated proteins purified on streptavidin beads and identified by MS; enrichment against GFP-TurboID and NLS-GFP-TurboID controls.

Consider Rtf1 (from UniProt P53064 1-558), for which the binding result in experiment [1] is reported as “binds”.

B1: Rio1 (enzyme, UniProt Q12196 1-484)
chain: MSLEDKFDSLSVSQGASDHINNQLLEKYSHKIKTDELSFSRAKTSKDKANRATVENVLDPRTMRFLKSMVTRGVIADLNGCLSTGKEANVYHAFAGTGKAPVIDEETGQYEVLETDGSRAEYAIKIYKTSILVFKDRERYVDGEFRFRNSRSQHNPRKMIKIWAEKEFRNLKRIYQSGVIPAPKPIEVKNNVLVMEFLSRGNGFASPKLKDYPYKNRDEIFHYYHTMVAYMRLLYQVCRLVHADLSEYNTIVHDDKLYMIDVSQSVEPEHPMSLDFLRMDIKNVNLYFEKMGISIFPERVIFQFVISETLEKFKGDYNNISALVAYIASNLPIKSTEQDEAEDEIFRSLHLVRSLGGLEERDFDRYTDGKFDLLKSLIAHDNERNFAASEQFEFDNADHECSSGTEEFSDDEEDGSSGSEEDDEEEGEYYDDDEPKVLKGKKHEDKDLKKLRKQEAKDAKREKRKTKVKKHIKKKLVKKTKSKK
B1: in experiment [2], the binding entry is recorded as “binds”.

B2: Rnh203 (protein, UniProt Q12338 1-110)
chain: MTKDAVNLDAYTVSFMPFYTEYQGPTEEFKDYKFEDTIYFRGKELKREKSATPSSSDNTTSNTFSNGAILSGNTITGKIVSVNNYEREGTDRNELARLQELISLIDVINQ
As to B2, in experiment [1], the binding entry is “binds”.

B3: Dhr2 (enzyme, UniProt P36009 1-735)
chain: MAANSNSRVASNHTSKKQKVRRNIHPFTNNTRIKRASKIVKFNDSGEGDHVSDQRSNKENVLTYKSLKSRASDLLKMRETLPVYQHKREIMSYIESNPVTVLIGETGSGKSTQIPQFVLEKLYDTKKHGSIAVTQPRRVAAINLATRVAQEHGCKLGEQVGYSVRFDNTTTTRTRLKYLTDGMLLRELMMNSDLREYSVIVIDEAHERTVLTDLILGFLKSLIQGPRPDLRIIVMSATLQAEKFSEFFNNAPILFVEGRKFDVKQYYLKAPTDDIVDAVIRCCIQINQGEELGDILCFLPGQEEIDKAVTIMEKIAKYVSDEAPVPLIVPYPLYAALPAVQQSLVFAPIKGFKRKVVFSTNIAETSVTISGVKFVVDSGLRKVKVWRHQLGLATLLTVPISQASAMQRSGRAGRESEGKSFRLYCESDYVKLPKQSEPEIARSDVTSPVLMLKRYGVDDLLNWTWFENPGKEAIVMGLQELYELGALDTRGKITKRGQQMALLPLQPHLSSVLIKASEVGCLSQVIDIVSCLSVENLLLNPSPEERDEVNERRLSLCNAGKRYGDLIMLKELFDIYFYELGKSQDASSERNDWCKGLCISIRGFKNVIRVRDQLRVYCKRLFSSISEEDEESKKIGEDGELISKILKCFLTGFIKNTAIGMPDRSYRTVSTGEPISIHPSSMLFMNKSCPGIMYTEYVFTTKGYARNVSRIELSWLQEVVTNAAAVAKQKVSDSK
Take B3: the binding result in experiment [2] is “binds”.

B4: Leo1 (protein, UniProt P38439 1-464)
chain: MSSESPQDQPQKEQISNNVGVTTNSTSNEETSRSQDDNVKEVNGNDDTKEEEQEEDAELDDLFGDDNDDDDDDDVKKSETEKSDSDSDEDDEGENINHRSRHRESLGLDDDEAEEQAMYTRKFYGEDANNFSDQDETTHTFKEENVELVRHIIPSKANVNETASHNEIFYARIPNFLTIDPIPFDPPSFEAKVNERASNSASREDQLDDRLIDENTVRWRYSRDKDQHVFKESNTQIVQWSDGTYSLKVGEECTDILVNDTSNTFLTVSHDQQELIQCYEGGEIKKTLMFIPTSTNSKIHQKLSKAVIRRNQRQSKGPGTYIVSMDPEVEKKELERKQSQILRDRRRRQLKEKEKQESPDAAFETGFRKQNSPTTYGASRRNEYEEDDFLVDDDEEEEAAFDDEEDDNEEEEEEEDADEENASRLRNLKREGAAMYREEEEEEKDRSETKRRRVAVIEDDEDED
On to B4, for which, in experiment [1], the binding result is “binds”.

B5: Rnh202 (protein, UniProt Q05635 1-350)
chain: MTVSNIGGEERLIILPDDYETSKTINTFTLPPPSNITSKPRIELFENINGKLYEIRSFQFGKGPSYSHEEDLANDKYHYTKENHPIKSTFIVNTSDPTDGYVFNSSKIHFCSLYDIAFSLIGFYYRNSVSADEQDYSNSSDTGENQKSNSKTNEKFLTVRDYHDFLTDNHDKNWENISLSRLKSGLAKVSETIEEAGDVYYKITSAMITQFLLGKVSKIVENFPPSIPTLKNAPTEIKQCYKVVMATNLLVSLIPRAAYHNLLTFSPTMDSGCLNPDIKASFIELENYETTNELQNAERELLMKSAMNVGLNSNGRVSLPVKKVTKKIVQNKKPKVAIGKGAIDGFFKRK
Take B5: the binding entry in experiment [1] is “binds”.

B6: Ctr9 (protein, UniProt P89105 1-1077)
chain: MTNAMKVEGYPSMEWPTSLDIPLKASEELVGIDLETDLPDDPTDLKTLLVEENSEKEHWLTIALAYCNHGKTNEGIKLIEMALDVFQNSERASLHTFLTWAHLNLAKGQSLSVETKEHELTQAELNLKDAIGFDPTWIGNMLATVELYYQRGHYDKALETSDLFVKSIHAEDHRSGRQSKPNCLFLLLRAKLLYQKKNYMASLKIFQELLVINPVLQPDPRIGIGLCFWQLKDSKMAIKSWQRALQLNPKNTSASILVLLGEFRESFTNSTNDKTFKEAFTKALSDLNNIFSENQHNPVLLTLLQTYYYFKGDYQTVLDIYHHRILKMSPMIAKIVLSESSFWCGRAHYALGDYRKSFIMFQESLKKNEDNLLAKLGLGQTQIKNNLLEESIITFENLYKTNESLQELNYILGMLYAGKAFDAKTAKNTSAKEQSNLNEKALKYLERYLKLTLATKNQLVISRAYLVISQLYELQNQYKTSLDYLSKALEEMEFIKKEIPLEVLNNLACYHFINGDFIKADDLFKQAKAKVSDKDESVNITLEYNIARTNEKNDCEKSESIYSQVTSLHPAYIAARIRNLYLKFAQSKIEDSDMSTEMNKLLDLNKSDLEIRSFYGWYLKNSKERKNNEKSTTHNKETLVKYNSHDAYALISLANLYVTIARDGKKSRNPKEQEKSKHSYLKAIQLYQKVLQVDPFNIFAAQGLAIIFAESKRLGPALEILRKVRDSLDNEDVQLNLAHCYLEMREYGKAIENYELVLKKFDNEKTRPHILNLLGRAWYARAIKERSVNFYQKALENAKTALDLFVKESSKSKFIHSVKFNIALLHFQIAETLRRSNPKFRTVQQIKDSLEGLKEGLELFRELNDLKEFNMIPKEELEQRIQLGETTMKSALERSLNEQEEFEKEQSAKIDEARKILEENELKEQGWMKQEEEARRLKLEKQAEEYRKLQDEAQKLIQEREAMAISEHNVKDDSDLSDKDNEYDEEKPRQKRKRSTKTKNSGESKRRKAAKKTLSDSDEDDDDVVKKPSHNKGKKSQLSNEFIEDSDEEEAQMSGSEQNKNDDNDENNDNDDNDGLF
Turning to B6, the binding result in experiment [1] is “binds”.

B7: Erb1 (protein, UniProt Q04660 1-807)
chain: MMAKNNKTTEAKMSKKRAASEESDVEEDEDKLLSVDGLIDAEASESDEDDDEYESAVEEKESSSDKEAQDDSDDDSDAELNKLLAEEEGDGEEDYDSSEFSDDTTSLTDRLSGVKLQTIVDPNIYSKYADGSDRIIKPEINPVYDSDDSDAETQNTIGNIPLSAYDEMPHIGYDINGKRIMRPAKGSALDQLLDSIELPEGWTGLLDKNSGSSLNLTKEELELISKIQRNEQTDDSINPYEPLIDWFTRHEEVMPLTAVPEPKRRFVPSKNEAKRVMKIVRAIREGRIIPPKKLKEMKEKEKIENYQYDLWGDSTETNDHVMHLRAPKLPPPTNEESYNPPEEYLLSPEEKEAWENTEYSERERNFIPQKYSALRKVPGYGESIRERFERSLDLYLAPRVRKNKLNIDPNSLIPELPSPKDLRPFPIRCSTIYAGHKGKVRTLSIDPSGLWLATGSDDGTVRVWEILTGREVYRTTLIDDEENPDYHIECIEWNPDANNGILAVAVGENIHLIVPPIFGYDIENNGKTKIEDGFGYDTFGTVKKSNLEVNENGDGDEDGENESAKNAVKKQVAQWNKPSQKQLEKDICITISCKKTVKKLSWHRKGDYFVTVQPDSGNTSVLIHQVSKHLTQSPFKKSKGIIMDAKFHPFKPQLFVCSQRYVRIYDLSQQILVKKLLPGARWLSKIDIHPRGDNLIASSFDKRVLWHDLDLASTPYKTLRYHEKAVRSVNFHKKLPLFSSAADDGTIHVFHATVYDDMMKNPMIVPLKKLTGHKVINSLGVLDAIWHPREAWLFSAGADNTARLWTT
As for B7, the binding result in experiment [2] is “binds”.
